Measured values: publication PMC5669951

Columns and labels:
[1] = target: T1, Flag-MIZ1 (MYC-interacting zinc-finger protein 1, Flag tagged) (UniProt Q13105); experiment: co-IP; HEK 293T cells co-transfected with tagged constructs, lysed 48 h after transfection (20 mM Tris-HCl pH 7.4, 2 mM EDTA, 25 mM NaF, 1% Triton X-100); IP with Myc, Flag or HA antibody and protein A/G beads overnight at 4 °C; immunoblotting; in Figure 4E with or without HA-RLIM (1 or 2 μg)
T1 sequence: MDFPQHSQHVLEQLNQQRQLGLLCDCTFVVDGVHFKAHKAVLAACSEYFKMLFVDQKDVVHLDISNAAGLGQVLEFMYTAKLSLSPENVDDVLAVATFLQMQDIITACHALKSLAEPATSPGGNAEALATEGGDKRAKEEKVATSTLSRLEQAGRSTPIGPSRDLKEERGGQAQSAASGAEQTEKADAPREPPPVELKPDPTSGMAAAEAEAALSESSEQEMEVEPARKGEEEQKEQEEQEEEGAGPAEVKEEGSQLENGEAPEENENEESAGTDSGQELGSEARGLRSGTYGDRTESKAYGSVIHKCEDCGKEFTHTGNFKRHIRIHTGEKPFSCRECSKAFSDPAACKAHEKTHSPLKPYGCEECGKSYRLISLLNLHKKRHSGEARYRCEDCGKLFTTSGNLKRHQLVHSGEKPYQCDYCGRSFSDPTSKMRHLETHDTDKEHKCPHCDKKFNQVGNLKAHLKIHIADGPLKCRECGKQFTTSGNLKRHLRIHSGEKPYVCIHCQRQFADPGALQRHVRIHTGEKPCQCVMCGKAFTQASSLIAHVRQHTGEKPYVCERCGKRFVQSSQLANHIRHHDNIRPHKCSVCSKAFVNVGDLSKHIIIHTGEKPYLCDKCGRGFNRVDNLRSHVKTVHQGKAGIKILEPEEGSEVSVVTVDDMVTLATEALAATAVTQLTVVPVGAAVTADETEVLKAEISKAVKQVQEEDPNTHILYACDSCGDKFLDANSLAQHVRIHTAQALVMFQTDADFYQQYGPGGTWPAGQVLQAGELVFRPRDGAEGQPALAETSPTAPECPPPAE

[2] = target: T2, HA-RLIM (RING finger LIM domain-binding protein, HA tagged) (UniProt Q9NVW2); experiment: as above
T2 sequence: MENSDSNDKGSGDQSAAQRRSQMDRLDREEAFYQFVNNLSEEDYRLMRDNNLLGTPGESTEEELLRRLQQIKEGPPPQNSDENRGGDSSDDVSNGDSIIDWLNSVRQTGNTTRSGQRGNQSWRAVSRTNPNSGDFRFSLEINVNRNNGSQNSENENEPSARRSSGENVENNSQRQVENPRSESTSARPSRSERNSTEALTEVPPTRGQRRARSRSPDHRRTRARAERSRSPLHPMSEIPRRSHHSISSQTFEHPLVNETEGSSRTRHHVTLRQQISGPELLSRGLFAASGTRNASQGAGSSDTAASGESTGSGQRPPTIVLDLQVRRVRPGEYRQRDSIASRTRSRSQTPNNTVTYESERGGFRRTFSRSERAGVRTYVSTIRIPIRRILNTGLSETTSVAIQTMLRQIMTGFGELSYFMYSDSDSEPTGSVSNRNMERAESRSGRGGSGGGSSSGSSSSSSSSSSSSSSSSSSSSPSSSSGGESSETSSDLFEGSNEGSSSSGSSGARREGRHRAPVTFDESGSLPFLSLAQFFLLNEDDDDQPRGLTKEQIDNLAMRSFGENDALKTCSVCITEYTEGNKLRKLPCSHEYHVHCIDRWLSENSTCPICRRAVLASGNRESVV

Substance: Myc-c-MYC (c-MYC, Myc tagged) (from UniProt P01106-1)
- binding [1]: binds
- binding [2]: binds

Results are given in words; binding and its absence hold for the method and conditions named. In cells and extracts the contact can be indirect. Binding calls can cover weak binding; strength is not graded here. Tags and fused reporters may be left off the sequences shown.
